Results from US20220144940A1.
Results are given in words; binding and its absence hold for the method and conditions named. Some results given as binding are weak or reduced against the parent protein; the word gives no strength.

Sequences of proteins named here, by UniProt entry; tags and fusion partners are left off. A change or cut given only in a name is not applied to a line headed by its entry. A line that says so, or that is headed by a name, gives the form on record, which may keep a tag or linker. Residues count along the entry.
UniProt P59901: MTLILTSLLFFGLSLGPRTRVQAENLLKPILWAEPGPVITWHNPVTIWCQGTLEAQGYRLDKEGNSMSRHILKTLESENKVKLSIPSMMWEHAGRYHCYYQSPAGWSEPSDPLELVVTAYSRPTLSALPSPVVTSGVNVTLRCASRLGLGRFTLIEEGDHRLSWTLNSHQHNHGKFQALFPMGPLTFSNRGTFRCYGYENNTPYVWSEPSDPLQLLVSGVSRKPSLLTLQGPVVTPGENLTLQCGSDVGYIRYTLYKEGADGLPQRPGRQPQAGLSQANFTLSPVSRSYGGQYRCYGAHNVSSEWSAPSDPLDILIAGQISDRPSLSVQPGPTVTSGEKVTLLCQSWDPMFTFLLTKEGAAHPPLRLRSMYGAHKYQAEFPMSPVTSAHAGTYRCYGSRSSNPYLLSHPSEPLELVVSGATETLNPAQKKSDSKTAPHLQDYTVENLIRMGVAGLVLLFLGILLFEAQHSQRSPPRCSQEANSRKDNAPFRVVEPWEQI
HA-tagged human ILT7 on CT-550 cells: residues 24-499 of P59901

Legend:
human ILT7 (human) [1] = target: human ILT7 (human) (UniProt P59901); test: SPR on ProteOn; reference antibody of the comparison
human ILT7 (human) [2] = target: human ILT7 (human) (UniProt P59901); test: FMAT cell binding assay, CHO-K1 cells expressing human ILT7, IgG
[3] = target: cynomolgus ILT7 (cynomolgus); test: flow cytometry on CynoILT7 CT-125 cells
[4] = target: HA-tagged human ILT7 on CT-550 cells (human) (UniProt P59901); test: flow cytometry on CT-550 cells
[5] = target: cynomolgus ILT7 (cynomolgus); test: FMAT cell binding assay, CHO-K1 cells expressing cynomolgus ILT7, IgG
[6] = target: cynomolgus ILT7 (cynomolgus); test: flow cytometry on CynoILT7 CT-125 cells (sentence prints 'human ILT7')

Measured: binding

B1: SBI28ch (antibody, V domains shown)
VH: QVQLQQSGAELVKPGASVKMSCKAFGYTFTTYPIEWMKQNHGKSLEWIGNFHPYNDDTKYNEKFKGKAKLTVEKSSSTVYLELSRLTSDDSAVYYCARGDDYGMDYWGQGTSVTVSS
VL: DIVMTQSQKFMSTSVGDRVSITCKASQNVRTAVAWYQQKPGQSPKALIYLASNRHTGVPDRFTGSGSGTDFTLTISNVQSEDLADYFCLQHWNYPFTFGSGTKLEIK
binds: human ILT7 (human) [1]

B2: ILT70142 (antibody, V domains shown)
VH: QVQLVQSGAEVKKPGASVKVSCKASGYTFTSYGISWVRQAPGQGLEWMGWISAYNGNTNYAQKLQGRVTMTRDTSISTAYMELSRLRSDDTAVYYCARNGLWGWDSDAFDIWGQGTTVTVSS
VL: QSVLTQPPSVSAAPGQKVTISCSGSSSNIGNNYVSWYQQLPGTAPKLLIYDNNKRPSGIPDRFSGSKSGTSATLGITGLQTGDEADYYCGTWDSSLSAGVFGTGTQLTVL
not listed: human ILT7 (human) [1]
binds: all other assays above

B3: ILT70144 (antibody, V domains shown)
VH: QVQLVQSGAEVKKPGASVKVSCKASGYTFTSYGISWVRQAPGQGLEWMGWISAYNGNTNYAQKLQGRVTMTRDTSISTAYMELSRLRSDDTAVYYCARNGLWGWDSDAFDIWGQGTTVTVSS
VL: QSVLTQPPSVSAAPGQKVTISCSGSSSNIGNNYVSWYQQLPGTAPKLLIYDNNKRPSGIPDRFSGSKSGTSATLGITGLQTGDEADYYCGTWDSSLSAGVFGTGTQLTVL
binds: human ILT7 (human) [2] | [3] | [4] | [5]
